The nature of one series: in vitro. As to conditions: rat. As to the method:
(§1) All solutions were prepared under sterile conditions.
(§2) For quantification of NSAIDs a reverse-phase high-performance liquid chromatography (RP-HPLC) system from Shimadzu was used (DGV-20A5/prominence Degasser, SIL – 20AC/prominence Auto Sampler, CTO – 20AC/prominence Column Oven, SPD – 20A/prominence UV detector, CMB – 20A/prominence Communications Bus Module). […] Before analysis proteins of samples were precipitated with ice-cold methanol or acetonitril depending on mobile phase composition and supernatants were analyzed. Data aquisition and analysis were performed by LC-Solution software (Shimadzu Handelsgesellschaft, Austria). Substances were analysed in triplicates with a injection volume of 20–50 µL.Varying mixtures of methanol, acetonitrile, and 10 mM potassium buffer (pH = 2.5 for all analysis except pH = 3.5 for single studies with celecoxib) were used as mobile phase.
(§3) Permeability coefficients were calculated following the clearance principle as described recently. Results of blank value experiments were included into permeability coefficient calculation by using reciprocal correlation shown in equation (1):
(§4) 1/PEcell = 1/PEall – 1/PEblank (1)
(§5) PEblank refers to the permeability coefficient without cell layer, PEall represents the permeability coefficient through membrane insert and the cell layer and PEcell is the permeability coefficient only through the cell layer.

Series [1] deals with primary rat brain microvascular endothelial cells (RBMEC). Nature of the series: in vitro. The protocol: as §1, §2, §3, §4, §5
A further series has as its system ECV304 cell layers. Particulars: human. As to the method: as §1, §2, §3, §4, §5

The source of these data is publication PMC3900635, “Transport Rankings of Non-Steroidal Antiinflammatory Drugs across Blood-Brain Barrier In Vitro Models” (PLoS ONE, 2014).

In turn, `CN1C(=O)CN=C(c2ccccc2)c2cc(Cl)ccc21` [Diazepam, diazepam] showed a Papp in the series “in vitro” of 69.9 ×10⁻⁶ cm/s. In series [1], this molecule registered a PSblank of 1.93 ± 0.13 µL/min. In series [1] (rat), this molecule yielded a PEall of 14.35±0.20 µm/min and a PScell of 3.77 ± 0.16 µL/min. In the series with ECV304 cell layers, the PEall stood at 13.26±0.05 µm/min.

Usually Papp stands for the rate of passage across a membrane or cell layer, normalised by area and donor concentration.
